Patent US20210246502A1, “RAPID IDENTIFICATION OF STRAINS FROM SEQUENCE DATA” (priority 2018, published 2021)
For at least one compound, name, drawing or mass did not settle the structure.

Test system: S. pneumoniae
Assay: Resistance of streptococcus in metagenomic sputum samples by agar diffusion, EUCAST methodology and breakpoints
Type: cell-based, Streptococcus pneumoniae
Procedure: Resistance of streptococcus in the metagenomic samples (SP07-SP12) was determined by agar diffusion using the EUCAST methodology and breakpoints. First, the inoculated agar plates were incubated at 37° C. overnight and then examined for growth with the potential for re-incubation up to 48 hours. Then, the samples were screened to oxacillin: if the zone diameter r was >20 mm, the isolate was considered sensitive to benzylpenicillin, otherwise a full MIC measurement to benzylpenicillin was done.

[1] = metagenomic sputum sample SP10 (Swedish 15A clone, ST63), EUCAST breakpoints

| Structure (SMILES) | resistance phenotype of sample [1] | resistance phenotype of sample (metagenomic sputum sample SP12 (serotype 3)) |
| --- | --- | --- |
| CCC[C@@H]1C[C@@H](C(=O)N[C@@H]([C@H]2O[C@H](SC)[C@H](O)[C@@H](O)[C@H]2O)[C@H](C)Cl)N(C)C1 [clindamycin] | resistant |  |
| CN(C)[C@@H]1C(O)=C(C(N)=O)C(=O)[C@@]2(O)C(O)=C3C(=O)c4c(O)cccc4[C@@](C)(O)[C@H]3C[C@@H]12 [tetracycline] | resistant | resistance |
